The record followed here is PMC8557881.

In this assay the target is T1, UL84 protein of HCMV strain AD169 (infected cells) (human cytomegalovirus (HCMV) strain AD169) (UniProt P16727).
T1 sequence: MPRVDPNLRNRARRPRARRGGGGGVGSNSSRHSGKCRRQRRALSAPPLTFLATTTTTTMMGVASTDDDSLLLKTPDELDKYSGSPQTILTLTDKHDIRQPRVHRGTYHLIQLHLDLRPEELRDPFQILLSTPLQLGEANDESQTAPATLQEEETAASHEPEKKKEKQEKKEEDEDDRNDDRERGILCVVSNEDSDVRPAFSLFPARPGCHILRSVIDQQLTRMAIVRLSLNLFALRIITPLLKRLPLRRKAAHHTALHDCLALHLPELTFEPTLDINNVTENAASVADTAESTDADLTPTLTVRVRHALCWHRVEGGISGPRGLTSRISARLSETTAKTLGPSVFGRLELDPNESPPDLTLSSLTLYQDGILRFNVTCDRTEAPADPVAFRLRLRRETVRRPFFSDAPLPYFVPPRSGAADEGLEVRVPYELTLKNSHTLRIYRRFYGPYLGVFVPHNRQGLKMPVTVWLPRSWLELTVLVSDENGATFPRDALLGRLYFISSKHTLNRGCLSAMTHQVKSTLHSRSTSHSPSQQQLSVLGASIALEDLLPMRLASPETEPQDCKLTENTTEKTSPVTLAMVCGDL
Description: co-IP; HF cells infected with AD169, FIX or TB40E (MOI = 1), lysate harvested at 6 dpi (NP-40 lysis buffer or RIPA buffer, sonicated); IP with UL84 antibody and protein G Dynabeads at 4°C; blot probed with IE2 antibody, reprobed with UL84 antibody.

No constants are given. Whether binding was seen depends on the method and setting. In cells and extracts the contact can be indirect. Binding calls can cover weak binding; strength is not graded here.

On to “IE2-40 of HCMV strain AD169 (infected cells)”, for which the binding entry was “binds”. Turning to “IE2-60 of HCMV strain AD169 (infected cells)”, the binding result is “binds”.
